Laboratory results from publication PMC9614079.
No constants are given. Whether binding was seen depends on the method and setting. In cells and extracts the contact can be indirect. Some binding calls cover weakened binding; strength is not graded here.

By UniProt entry, the sequences of proteins in these tests, tags left out.
UniProt Q96KP1: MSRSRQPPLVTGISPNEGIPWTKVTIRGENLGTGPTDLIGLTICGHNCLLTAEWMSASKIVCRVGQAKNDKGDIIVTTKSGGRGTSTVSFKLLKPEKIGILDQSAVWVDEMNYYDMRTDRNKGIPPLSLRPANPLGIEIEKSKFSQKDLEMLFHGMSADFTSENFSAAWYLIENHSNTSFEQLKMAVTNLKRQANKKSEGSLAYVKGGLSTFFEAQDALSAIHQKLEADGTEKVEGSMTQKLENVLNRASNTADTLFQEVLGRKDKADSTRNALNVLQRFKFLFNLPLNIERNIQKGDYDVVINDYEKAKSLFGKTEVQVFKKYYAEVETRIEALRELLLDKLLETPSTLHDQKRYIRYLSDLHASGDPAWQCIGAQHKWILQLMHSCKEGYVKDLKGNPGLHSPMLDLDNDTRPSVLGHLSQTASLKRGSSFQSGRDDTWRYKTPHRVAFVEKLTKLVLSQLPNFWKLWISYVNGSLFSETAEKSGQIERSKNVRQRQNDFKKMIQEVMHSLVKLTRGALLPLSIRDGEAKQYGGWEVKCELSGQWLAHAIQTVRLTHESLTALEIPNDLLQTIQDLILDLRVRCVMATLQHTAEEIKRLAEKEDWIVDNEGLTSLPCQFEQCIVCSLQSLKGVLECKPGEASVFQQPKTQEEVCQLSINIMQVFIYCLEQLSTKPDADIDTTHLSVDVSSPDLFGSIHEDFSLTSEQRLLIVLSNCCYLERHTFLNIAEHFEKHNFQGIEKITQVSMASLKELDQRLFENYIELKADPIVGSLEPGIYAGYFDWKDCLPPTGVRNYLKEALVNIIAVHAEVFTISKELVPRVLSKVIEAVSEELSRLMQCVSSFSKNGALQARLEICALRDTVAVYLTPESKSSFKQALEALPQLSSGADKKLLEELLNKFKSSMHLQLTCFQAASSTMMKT

Biological target: T1, STAT6 (human (endogenous in THP-1)) (UniProt P42226)
T1 sequence: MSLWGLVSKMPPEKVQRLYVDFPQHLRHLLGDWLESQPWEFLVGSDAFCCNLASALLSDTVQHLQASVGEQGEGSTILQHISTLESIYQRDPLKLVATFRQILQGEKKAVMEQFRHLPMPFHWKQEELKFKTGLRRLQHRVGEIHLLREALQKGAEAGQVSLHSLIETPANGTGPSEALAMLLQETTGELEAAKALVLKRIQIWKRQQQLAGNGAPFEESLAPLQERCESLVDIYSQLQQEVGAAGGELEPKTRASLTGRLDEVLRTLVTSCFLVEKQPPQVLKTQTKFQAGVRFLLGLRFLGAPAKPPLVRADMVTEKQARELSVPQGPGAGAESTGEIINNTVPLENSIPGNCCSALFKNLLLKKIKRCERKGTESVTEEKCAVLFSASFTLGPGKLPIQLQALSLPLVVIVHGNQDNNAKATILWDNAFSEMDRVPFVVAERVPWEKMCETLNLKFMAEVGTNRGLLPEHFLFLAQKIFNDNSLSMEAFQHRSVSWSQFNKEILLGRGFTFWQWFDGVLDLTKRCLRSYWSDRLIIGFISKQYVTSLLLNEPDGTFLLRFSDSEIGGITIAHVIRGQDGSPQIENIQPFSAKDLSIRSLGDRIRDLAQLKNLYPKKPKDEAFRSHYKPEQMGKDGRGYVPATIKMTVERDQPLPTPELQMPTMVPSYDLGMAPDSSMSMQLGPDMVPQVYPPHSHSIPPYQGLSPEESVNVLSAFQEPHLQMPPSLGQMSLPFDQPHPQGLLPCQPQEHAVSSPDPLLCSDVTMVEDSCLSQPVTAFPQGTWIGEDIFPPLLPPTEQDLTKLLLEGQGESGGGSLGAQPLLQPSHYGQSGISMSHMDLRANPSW
Test: co-IP; lysates (1 mg protein, 1x DPBS with 1% Triton X-100) of THP-1-derived macrophages in M0 state or M2 state (IL-4 + IL-13); rabbit SEC5 or STAT6 antibody (10 ug) or rabbit IgG isotype control on protein G agarose, 2 h, three washes with PBS; western blot

SEC5 (from UniProt Q96KP1 1-924) was tested, and the binding was “binds”.
